# Measurements: the supplement of paper PMC8728848
# The other results are listed elsewhere or left out.
# Legend:
# Assay in all cases: glycan array binding signal (z-score within array); higher = stronger binding
# Details in all cases: glycan notation: IUPAC condensed, linker removed
# [1] = test system: Gal(a1-3)[Gal(a1-4)]Gal(b1-4)GlcNAc
# Outline: (§1)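 The binding signal is a Z-score computed within each array and averaged over linkers. Arrays of the same protein sequence at different concentrations or buffers were also averaged together. Data originate from 3228 arrays in the Consortium for Functional Glycomics database, kept only where the protein sequence was available.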
# [2] = test system: Gal(a1-4)Gal(b1-3)GlcNAc(b1-2)Man(a1-3)[Gal(a1-4)Gal(b1-3)GlcNAc(b1-2)Man(a1-6)]Man(b1-4)GlcNAc(b1-4)GlcNAc
# Outline: as §1
# [3] = test system: Gal(a1-4)Gal(b1-4)GlcNAc(b1-2)Man(a1-3)[Gal(a1-4)Gal(b1-4)GlcNAc(b1-2)Man(a1-6)]Man(b1-4)GlcNAc(b1-4)GlcNAc
# Outline: as §1
# [4] = test system: Gal(a1-4)Gal(b1-4)GlcNAc(b1-3)Gal(b1-4)Glc
# Outline: as §1
# Gal(a1-4)Gal(b1-4)GlcNAc = test system: Gal(a1-4)Gal(b1-4)GlcNAc
# Outline: as §1
# Gal(a1-4)Gal(b1-4)Glc = test system: Gal(a1-4)Gal(b1-4)Glc
# Outline: as §1
# Gal(a1-4)GlcNAc = test system: Gal(a1-4)GlcNAc
# Outline: as §1
# Gal(a1-6)Glc = test system: Gal(a1-6)Glc
# Outline: as §1
# Gal(b1-2)Gal = test system: Gal(b1-2)Gal
# Outline: as §1
# Gal(b1-3)Gal(b1-4)GlcNAc = test system: Gal(b1-3)Gal(b1-4)GlcNAc
# Outline: as §1
# [5] = test system: Gal(b1-3)GalNAc(a1-3)[Fuc(a1-2)]Gal(b1-4)GlcNAc
# Outline: as §1
# [6] = test system: Gal(b1-3)GalNAc(a1-3)[Fuc(a1-2)]Gal(b1-4)Glc
# Outline: as §1
# [7] = test system: Gal(b1-3)GalNAc(b1-3)Gal(a1-4)Gal(b1-4)Glc
# Outline: as §1
# Gal(b1-3)GalNAc(b1-3)Gal = test system: Gal(b1-3)GalNAc(b1-3)Gal
# Outline: as §1
# [8] = test system: Gal(b1-3)GalNAc(b1-4)Gal(b1-4)Glc
# Outline: as §1
# [9] = test system: Gal(b1-3)GalNAc(b1-4)[Neu5Ac(a2-3)]Gal(b1-4)Glc
# Outline: as §1
# Gal(b1-3)GalNAc = test system: Gal(b1-3)GalNAc
# Outline: as §1
# Gal(b1-3)Gal = test system: Gal(b1-3)Gal
# Outline: as §1
# [10] = test system: Gal(b1-3)GlcNAc(a1-3)Gal(b1-4)GlcNAc
# Outline: as §1
# [11] = test system: Gal(b1-3)GlcNAc(a1-6)Gal(b1-4)GlcNAc
# Outline: as §1
# [12] = test system: Gal(b1-3)GlcNAc(b1-2)Man(a1-3)[Gal(b1-3)GlcNAc(b1-2)Man(a1-6)]Man(b1-4)GlcNAc(b1-4)GlcNAc
# Outline: as §1
# [13] = test system: Gal(b1-3)GlcNAc(b1-2)Man(a1-3)[Gal(b1-3)GlcNAc(b1-2)Man(a1-6)]Man(b1-4)GlcNAc(b1-4)[Fuc(a1-6)]GlcNAc
# Outline: as §1
# [14] = test system: Gal(b1-3)GlcNAc(b1-2)Man(a1-3)[GlcNAc(b1-4)][Gal(b1-3)GlcNAc(b1-2)Man(a1-6)]Man(b1-4)GlcNAc(b1-4)GlcNAc
# Outline: as §1
# Gal(b1-3)GlcNAc(b1-2)Man = test system: Gal(b1-3)GlcNAc(b1-2)Man
# Outline: as §1
# [15] = test system: Gal(b1-3)GlcNAc(b1-2)[Gal(b1-3)GlcNAc(b1-6)]Man(a1-6)[Gal(b1-3)GlcNAc(b1-2)Man(a1-3)]Man(b1-4)GlcNAc(b1-4)GlcNAc
# Outline: as §1
# [16] = test system: Gal(b1-3)GlcNAc(b1-3)Gal(b1-3)GlcNAc
# Outline: as §1
# [17] = test system: Gal(b1-3)GlcNAc(b1-3)Gal(b1-4)GlcNAc(b1-2)Man(a1-3)[Gal(b1-3)GlcNAc(b1-3)Gal(b1-4)GlcNAc(b1-2)Man(a1-6)]Man(b1-4)GlcNAc(b1-4)GlcNAc
# Outline: as §1
# [18] = test system: Gal(b1-3)GlcNAc(b1-3)Gal(b1-4)GlcNAc(b1-2)[Gal(b1-3)GlcNAc(b1-3)Gal(b1-4)GlcNAc(b1-6)]Man(a1-6)[Gal(b1-3)GlcNAc(b1-3)Gal(b1-4)GlcNAc(b1-2)Man(a1-3)]Man(b1-4)GlcNAc(b1-4)[Fuc(a1-6)]GlcNAc
# Outline: as §1
# [19] = test system: Gal(b1-3)GlcNAc(b1-3)Gal(b1-4)GlcNAc(b1-3)Gal(b1-4)GlcNAc(b1-2)[Gal(b1-3)GlcNAc(b1-3)Gal(b1-4)GlcNAc(b1-3)Gal(b1-4)GlcNAc(b1-6)]Man(a1-6)[Gal(b1-3)GlcNAc(b1-3)Gal(b1-4)GlcNAc(b1-3)Gal(b1-4)GlcNAc(b1-2)Man(a1-3)]Man(b1-4)GlcNAc(b1-4)[Fuc(a1-6)]GlcNAc
# Outline: as §1
# [20] = test system: Gal(b1-3)GlcNAc(b1-3)Gal(b1-4)GlcNAc(b1-6)[Gal(b1-3)GlcNAc(b1-3)]Gal(b1-4)Glc
# Outline: as §1
# [21] = test system: Gal(b1-3)GlcNAc(b1-3)Gal(b1-4)GlcNAc
# Outline: as §1
# [22] = test system: Gal(b1-3)GlcNAc(b1-3)Gal(b1-4)Glc
# Outline: as §1
substance,measurement,setting,value
MpAFP RI GFP (Marinomonas primoryensis),glycan array binding signal (z-score),[1],-0.392
same,glycan array binding signal (z-score),[2],-0.349
same,glycan array binding signal (z-score),[3],-0.087
same,glycan array binding signal (z-score),[4],-0.588
same,glycan array binding signal (z-score),Gal(a1-4)Gal(b1-4)GlcNAc,0.997
same,glycan array binding signal (z-score),Gal(a1-4)Gal(b1-4)Glc,-0.228
same,glycan array binding signal (z-score),Gal(a1-4)GlcNAc,0.126
same,glycan array binding signal (z-score),Gal(a1-6)Glc,-0.224
same,glycan array binding signal (z-score),Gal(b1-2)Gal,-0.213
same,glycan array binding signal (z-score),Gal(b1-3)Gal(b1-4)GlcNAc,-0.374
same,glycan array binding signal (z-score),[5],0.016
same,glycan array binding signal (z-score),[6],0.006
same,glycan array binding signal (z-score),[7],-0.49
same,glycan array binding signal (z-score),Gal(b1-3)GalNAc(b1-3)Gal,0.931
same,glycan array binding signal (z-score),[8],0.076
same,glycan array binding signal (z-score),[9],-0.54
same,glycan array binding signal (z-score),Gal(b1-3)GalNAc,-0.261
same,glycan array binding signal (z-score),Gal(b1-3)Gal,-0.099
same,glycan array binding signal (z-score),[10],-0.503
same,glycan array binding signal (z-score),[11],-0.716
same,glycan array binding signal (z-score),[12],0.022
same,glycan array binding signal (z-score),[13],-0.107
same,glycan array binding signal (z-score),[14],1.37
same,glycan array binding signal (z-score),Gal(b1-3)GlcNAc(b1-2)Man,0.239
same,glycan array binding signal (z-score),[15],-0.098
same,glycan array binding signal (z-score),[16],-0.545
same,glycan array binding signal (z-score),[17],-0.371
same,glycan array binding signal (z-score),[18],0.507
same,glycan array binding signal (z-score),[19],2.1
same,glycan array binding signal (z-score),[20],-0.722
same,glycan array binding signal (z-score),[21],-0.335
same,glycan array binding signal (z-score),[22],-0.427

# Retrieved one by one from the list above (2):
substance,measurement,setting,value
MpAFP RI GFP (Marinomonas primoryensis),glycan array binding signal (z-score),[19],2.1
same,glycan array binding signal (z-score),[18],0.507
